In publication doi:10.1101/2021.01.18.426261:
No constants are given. Whether binding was seen depends on the method and setting. In cells and extracts the contact can be indirect. Some entries that bind do so weakly or less than the wild type. One block for each binder: values may come before it.

By UniProt entry, the sequences of proteins in these tests, tags left out.
UniProt P49816: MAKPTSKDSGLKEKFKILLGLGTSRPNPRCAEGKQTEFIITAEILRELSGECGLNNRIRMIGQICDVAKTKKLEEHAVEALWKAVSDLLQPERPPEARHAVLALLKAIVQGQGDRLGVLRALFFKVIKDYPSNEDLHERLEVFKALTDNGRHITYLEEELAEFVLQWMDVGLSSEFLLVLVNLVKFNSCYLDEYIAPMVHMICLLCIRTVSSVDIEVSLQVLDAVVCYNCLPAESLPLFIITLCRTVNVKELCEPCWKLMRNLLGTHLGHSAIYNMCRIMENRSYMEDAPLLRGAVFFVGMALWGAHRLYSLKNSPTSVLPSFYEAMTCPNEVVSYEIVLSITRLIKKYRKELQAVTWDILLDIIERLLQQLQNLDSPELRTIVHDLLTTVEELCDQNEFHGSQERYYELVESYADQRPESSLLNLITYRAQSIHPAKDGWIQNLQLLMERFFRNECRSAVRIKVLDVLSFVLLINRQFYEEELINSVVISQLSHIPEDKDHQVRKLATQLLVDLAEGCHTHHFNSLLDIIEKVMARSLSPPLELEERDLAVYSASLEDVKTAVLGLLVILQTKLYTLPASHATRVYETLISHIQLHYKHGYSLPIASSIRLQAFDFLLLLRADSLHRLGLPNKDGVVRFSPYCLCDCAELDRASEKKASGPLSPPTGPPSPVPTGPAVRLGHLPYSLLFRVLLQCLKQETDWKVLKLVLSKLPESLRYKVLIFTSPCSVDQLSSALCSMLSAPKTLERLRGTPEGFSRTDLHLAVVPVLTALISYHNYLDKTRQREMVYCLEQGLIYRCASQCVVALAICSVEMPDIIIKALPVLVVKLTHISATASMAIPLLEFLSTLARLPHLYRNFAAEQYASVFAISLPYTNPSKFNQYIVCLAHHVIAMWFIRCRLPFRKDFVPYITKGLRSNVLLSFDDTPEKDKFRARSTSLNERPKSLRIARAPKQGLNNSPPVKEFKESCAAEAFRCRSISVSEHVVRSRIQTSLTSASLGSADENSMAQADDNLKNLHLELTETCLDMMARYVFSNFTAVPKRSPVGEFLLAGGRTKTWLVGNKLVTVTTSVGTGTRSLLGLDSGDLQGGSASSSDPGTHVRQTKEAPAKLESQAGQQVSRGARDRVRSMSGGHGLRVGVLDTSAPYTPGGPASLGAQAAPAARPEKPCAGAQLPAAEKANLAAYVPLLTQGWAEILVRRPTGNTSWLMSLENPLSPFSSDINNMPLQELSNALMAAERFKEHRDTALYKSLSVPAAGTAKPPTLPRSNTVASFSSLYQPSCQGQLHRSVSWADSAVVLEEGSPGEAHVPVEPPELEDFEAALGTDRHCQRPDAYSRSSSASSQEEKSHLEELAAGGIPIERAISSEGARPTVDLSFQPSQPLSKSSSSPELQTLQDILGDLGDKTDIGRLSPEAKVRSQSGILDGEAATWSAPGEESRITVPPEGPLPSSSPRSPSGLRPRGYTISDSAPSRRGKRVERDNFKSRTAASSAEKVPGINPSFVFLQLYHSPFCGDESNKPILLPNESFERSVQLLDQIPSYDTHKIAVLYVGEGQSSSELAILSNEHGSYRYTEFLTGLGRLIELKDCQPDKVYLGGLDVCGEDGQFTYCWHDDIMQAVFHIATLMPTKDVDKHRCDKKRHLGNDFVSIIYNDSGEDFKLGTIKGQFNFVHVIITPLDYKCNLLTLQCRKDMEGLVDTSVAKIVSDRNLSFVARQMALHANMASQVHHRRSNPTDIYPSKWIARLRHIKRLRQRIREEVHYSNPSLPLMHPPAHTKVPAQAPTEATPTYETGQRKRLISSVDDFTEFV

Experiments:
TSC1 (human) = target: T1, TSC1 (human) (UniProt Q92574); assay: co-IP
T1 sequence: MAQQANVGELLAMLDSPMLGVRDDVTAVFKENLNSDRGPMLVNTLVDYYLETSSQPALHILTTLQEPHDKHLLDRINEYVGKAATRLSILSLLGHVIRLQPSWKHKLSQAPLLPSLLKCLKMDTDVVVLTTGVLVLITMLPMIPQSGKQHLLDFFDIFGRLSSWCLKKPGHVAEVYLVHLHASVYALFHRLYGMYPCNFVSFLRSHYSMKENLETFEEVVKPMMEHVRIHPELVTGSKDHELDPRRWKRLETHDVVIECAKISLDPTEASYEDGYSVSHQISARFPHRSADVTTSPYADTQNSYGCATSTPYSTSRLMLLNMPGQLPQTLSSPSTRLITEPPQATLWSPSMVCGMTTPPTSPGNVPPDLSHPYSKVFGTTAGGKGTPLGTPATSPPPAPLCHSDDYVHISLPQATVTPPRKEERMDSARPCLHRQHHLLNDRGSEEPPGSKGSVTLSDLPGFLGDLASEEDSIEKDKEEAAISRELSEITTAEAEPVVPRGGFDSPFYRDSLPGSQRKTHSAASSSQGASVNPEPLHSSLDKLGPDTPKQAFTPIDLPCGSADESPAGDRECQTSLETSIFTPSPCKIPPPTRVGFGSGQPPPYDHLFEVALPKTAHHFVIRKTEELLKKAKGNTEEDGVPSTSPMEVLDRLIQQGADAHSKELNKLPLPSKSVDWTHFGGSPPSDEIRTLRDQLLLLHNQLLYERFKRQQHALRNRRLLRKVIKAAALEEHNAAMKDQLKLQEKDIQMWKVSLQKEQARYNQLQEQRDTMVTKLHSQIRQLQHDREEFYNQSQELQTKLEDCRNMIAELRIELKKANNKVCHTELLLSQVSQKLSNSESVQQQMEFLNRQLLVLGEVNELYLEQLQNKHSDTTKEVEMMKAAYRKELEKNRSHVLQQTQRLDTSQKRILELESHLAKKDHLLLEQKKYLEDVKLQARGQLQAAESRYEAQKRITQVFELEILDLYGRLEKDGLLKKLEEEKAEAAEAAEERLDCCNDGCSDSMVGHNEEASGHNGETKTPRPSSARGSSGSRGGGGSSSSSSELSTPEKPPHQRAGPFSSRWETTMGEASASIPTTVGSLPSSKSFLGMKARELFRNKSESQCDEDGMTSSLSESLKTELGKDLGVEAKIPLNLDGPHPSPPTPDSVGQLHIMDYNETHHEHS

[1] = target: TSC2 (rat brain) (rat (endogenous in brain)) (UniProt P49816); assay: co-IP

binding (TSC1 (human)): binds
B1: TBC1D7 (protein, UniProt Q9P0N9 1-293)
chain: MTEDSQRNFRSVYYEKVGFRGVEEKKSLEILLKDDRLDTEKLCTFSQRFPLPSMYRALVWKVLLGILPPHHESHAKVMMYRKEQYLDVLHALKVVRFVSDATPQAEVYLRMYQLESGKLPRSPSFPLEPDDEVFLAIAKAMEEMVEDSVDCYWITRRFVNQLNTKYRDSLPQLPKAFEQYLNLEDGRLLTHLRMCSAAPKLPYDLWFKRCFAGCLPESSLQRVWDKVVSGSCKILVFVAVEILLTFKIKVMALNSAEKITKFLENIPQDSSDAIVSKAIDLWHKHCGTPVHSS

binding [1]: binds
B2: TSC1 (rat brain) (protein, UniProt Q9Z136 1-1163)
chain: MAQLANIGELLSMLDSSTLGVRDDVTTIFKESLNSERGPMLVNTLVDYYLETNSQPVLHILTTLQEPHDKHLLDKMNEYVGKAATRLSILSLLGHVVRLQPSWKHKLSQAPLLPSLLKCLKMDTDVVVLTTGVLVLITMLPMIPQSGKQHLLDFFDIFGRLSSWCLKKPGHVTEVYLVHLHASVYALFHRLYGMYPCNFVSFLRSHYSMKENVETFEEVVKPMMEHVRIHPELVTGSKDHELDPRRWKTLETHDVVIECAKISLDPTEASYEDGDAVSHQLSACFPHRSADVTTSSYVDTQNSYGGATSTPSSTSRLMLFSTPGQLPQSLSSLSTRPLPEPLQASLWSPSAVCGMTTPPTSPGNVPADLSHPYSKAFGTTTGGKGTPSGTPATSPPPAPPCPQDDCAHGPASQASATPPRKEERADSSRPYLPRQQDVPSDRGLEDLPGSKGSVTLRNLPDFLGDLASEEDSIEKDKEEAAISKELSEITTAEADPVAPRGGFDSPFYRDSLSGSQRKTHSAASGTQGFSVNPEPLHSSLDKHGPDTPKQAFTPIDPPSGSADASPAGDRDRQTSLETSILTPSPCKIPPQRGVSFGSGQLPPYDHLFEVALPKTACHFVSKKTEELLKKAKGNPEEDCVPSTSPMEVLDRLLEQGAGAHSKELSRLSLPSKSVDWTHFGGSPPSDEIRTLRDQLLLLHNQLLYERFKRQQHALRNRRLLRKVIRAAALEEHNAAMKDQLKLQEKDIQMWKVSLQKEQARYSQLQQQRDTMVTQLHSQIRQLQHDREEFYNQSQELQTKLEDCRSMIAELRVELKKANSKVCHTELLLSQVSQKLSNSESVQQQMEFLNRQLLVLGEVNELYLEQLQSKHPDTTKEVEMMKTAYRKELEKNRSHLLQQNQRLDASQRRVLELESLLAKKDHLLLEQKKYLEDVKSQASGQLLAAESRYEAQRKITRVLELEILDLYGRLEKDGRLQKLEEDRAEAAEAAEERLDCCTDGCSDSLLGHNEEAAGHNGETRTSRPGGTRASCGGRVTGGSSSSSSELSTPEKPPNQRFSSRWEPTMGEPSSSIPTTVGSLPSSKSFLGMKTRELFRNKSESQCDEDGMTMSSFSETLKTELGKDSAGMENKTPPSLDAPHPSSPSSDSMGQLHIMDYNETHHEHS
